Binding data for one molecule are collected here from paper PMC6884552, “Glycogen branching enzyme controls cellular iron homeostasis via Iron Regulatory Protein 1 and mitoNEET” (Nature Communications, 2019).

No constants are given. Whether binding was seen depends on the method and setting. Binding seen in cells or lysates may run through a third protein. A yes stands for co-enrichment or nearness to the bait. Other partners may have been found. For some assays here: A no says only that the protein was not detected with the bait. Where a sequence is shown, tags or fusion partners need not be part of it.

The target in experiment [1] is T1, Drosophila IRP1B in larvae (endogenously Flag-tagged IRP1B^3F as bait; endogenous IRP1B as prey) (Drosophila (endogenous in larvae)) (UniProt Q9VGZ3).
T1 sequence: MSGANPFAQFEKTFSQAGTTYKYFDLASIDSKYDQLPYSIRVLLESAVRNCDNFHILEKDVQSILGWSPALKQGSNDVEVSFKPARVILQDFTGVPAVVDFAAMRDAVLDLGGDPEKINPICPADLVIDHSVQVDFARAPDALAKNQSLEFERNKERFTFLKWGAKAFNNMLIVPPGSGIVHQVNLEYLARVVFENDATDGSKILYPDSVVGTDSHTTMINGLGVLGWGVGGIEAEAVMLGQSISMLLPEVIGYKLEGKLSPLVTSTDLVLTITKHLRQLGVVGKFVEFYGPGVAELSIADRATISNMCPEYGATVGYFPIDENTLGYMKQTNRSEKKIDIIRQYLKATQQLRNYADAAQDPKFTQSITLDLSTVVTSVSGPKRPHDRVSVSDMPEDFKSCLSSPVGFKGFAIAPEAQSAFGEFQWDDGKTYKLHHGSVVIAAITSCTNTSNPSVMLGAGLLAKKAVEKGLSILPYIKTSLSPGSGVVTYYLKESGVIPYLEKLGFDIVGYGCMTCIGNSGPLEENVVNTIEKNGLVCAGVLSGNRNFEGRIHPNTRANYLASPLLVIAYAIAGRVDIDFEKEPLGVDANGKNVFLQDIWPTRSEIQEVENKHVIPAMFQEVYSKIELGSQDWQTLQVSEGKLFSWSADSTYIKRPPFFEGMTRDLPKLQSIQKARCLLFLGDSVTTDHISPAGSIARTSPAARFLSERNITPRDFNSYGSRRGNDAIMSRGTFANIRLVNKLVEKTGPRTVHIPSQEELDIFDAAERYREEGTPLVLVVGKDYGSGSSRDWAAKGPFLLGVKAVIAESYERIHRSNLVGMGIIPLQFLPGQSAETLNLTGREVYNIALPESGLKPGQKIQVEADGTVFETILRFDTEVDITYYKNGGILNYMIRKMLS
Nature of the experiment: affinity purification with mass spectrometry; whole-body L3 larvae with Flag-tagged knock-in alleles (AGBE^FCF, IRP1A^3F, IRP1B^3F) on regular food (IRP1A^3F also after one or two generations on BPS food); 0.2% formaldehyde cross-linking in vivo; anti-Flag M2 affinity gel, 2 h, 4 °C; proteins found in untagged controls removed.

Experiment [2] has as its target T2, Drosophila AGBE in larvae (endogenously Flag-tagged AGBE^FCF as bait; endogenous AGBE as prey) (Drosophila (endogenous in larvae)) (UniProt A1Z992).
T2 sequence: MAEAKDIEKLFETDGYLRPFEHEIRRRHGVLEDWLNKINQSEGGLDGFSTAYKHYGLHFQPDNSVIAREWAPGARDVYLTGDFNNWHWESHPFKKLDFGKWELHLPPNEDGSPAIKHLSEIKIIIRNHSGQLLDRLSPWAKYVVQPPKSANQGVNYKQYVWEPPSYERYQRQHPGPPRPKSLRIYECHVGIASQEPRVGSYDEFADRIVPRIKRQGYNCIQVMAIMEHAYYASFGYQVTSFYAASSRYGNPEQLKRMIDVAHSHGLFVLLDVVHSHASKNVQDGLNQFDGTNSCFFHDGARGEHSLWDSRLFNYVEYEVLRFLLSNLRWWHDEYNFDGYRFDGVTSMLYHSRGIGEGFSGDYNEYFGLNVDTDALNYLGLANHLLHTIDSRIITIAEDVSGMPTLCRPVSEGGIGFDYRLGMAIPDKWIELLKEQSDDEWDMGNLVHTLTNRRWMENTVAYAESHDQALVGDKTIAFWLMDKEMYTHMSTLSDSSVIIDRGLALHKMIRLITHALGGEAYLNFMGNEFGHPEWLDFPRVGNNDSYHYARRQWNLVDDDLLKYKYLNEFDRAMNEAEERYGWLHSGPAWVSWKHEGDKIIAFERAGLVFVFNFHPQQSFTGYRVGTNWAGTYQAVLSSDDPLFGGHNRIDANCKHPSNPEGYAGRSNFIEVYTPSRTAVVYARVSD
The experiment is described as above.

B1: HA-tagged Drosophila Cisd2 (natural protein, UniProt Q9VAM6 1-133, looked up)
chain: MEPISHLVKSSLPNYLSSLPVPDSIGGWFKLSFKDWLALIPPTVVVAGLGYTAYLAYCPAARASCAAKNSGRCNNHIRKNEPKVVDMIDVEDIAEKAAFCRCWKTKNWPYCDGSHGEHNKQTGDNVGPIVIKK
notes: Drosophila Cisd2, cDNA RE49709; also called mitoNEET; Cisd2/mitoNEET; source: S2 cells, transfected, in lysate
In the case of B1, the binding result in experiment [1] is “no binding”; in experiment [2], “binds”.
